Binding data for 2 molecules are collected here from PMC11176388.

This test has as its target PP1c (human (endogenous in HCC94 and CaSki)). The test is described as follows: co-IP; endogenous proteins; lysates of cancer stem cells or bulk cells treated with cisplatin for 24 h, or of cancer stem cells transfected with PCK1 siRNA; IgG or IP antibody overnight at 4 °C, Protein A/G beads 2 h at 4 °C, five washes with TBST; western blot.

Results are given in words; binding and its absence hold for the method and conditions named. In cells and extracts the contact can be indirect. Binding calls can cover weak binding; strength is not graded here.

B1: PYGL (enzyme, UniProt P06737 1-847)
chain: MAKPLTDQEKRRQISIRGIVGVENVAELKKSFNRHLHFTLVKDRNVATTRDYYFALAHTVRDHLVGRWIRTQQHYYDKCPKRVYYLSLEFYMGRTLQNTMINLGLQNACDEAIYQLGLDIEELEEIEEDAGLGNGGLGRLAACFLDSMATLGLAAYGYGIRYEYGIFNQKIRDGWQVEEADDWLRYGNPWEKSRPEFMLPVHFYGKVEHTNTGTKWIDTQVVLALPYDTPVPGYMNNTVNTMRLWSARAPNDFNLRDFNVGDYIQAVLDRNLAENISRVLYPNDNFFEGKELRLKQEYFVVAATLQDIIRRFKASKFGSTRGAGTVFDAFPDQVAIQLNDTHPALAIPELMRIFVDIEKLPWSKAWELTQKTFAYTNHTVLPEALERWPVDLVEKLLPRHLEIIYEINQKHLDRIVALFPKDVDRLRRMSLIEEEGSKRINMAHLCIVGSHAVNGVAKIHSDIVKTKVFKDFSELEPDKFQNKTNGITPRRWLLLCNPGLAELIAEKIGEDYVKDLSQLTKLHSFLGDDVFLRELAKVKQENKLKFSQFLETEYKVKINPSSMFDVQVKRIHEYKRQLLNCLHVITMYNRIKKDPKKLFVPRTVIIGGKAAPGYHMAKMIIKLITSVADVVNNDPMVGSKLKVIFLENYRVSLAEKVIPATDLSEQISTAGTEASGTGNMKFMLNGALTIGTMDGANVEMAEEAGEENLFIFGMRIDDVAALDKKGYEAKEYYEALPELKLVIDQIDNGFFSPKQPDLFKDIINMLFYHDRFKVFADYEAYVKCQDKVSQLYMNPKAWNTMVLKNIAASGKFSSDRTIKEYAQNIWNVEPSDLKISLSNESNKVNGN
As for B1, the binding entry is on record as “binds”.

B2: phosphorylated glycogen phosphorylase (pPYGL) (enzyme, UniProt P06737 1-847)
chain: B1 chain
modifications: phosphorylated (site not given)
As for B2, the binding result is reported as “binds”.
